# US20150086618A1, “PHOSPHOLIPID MICELLAR AND LIPOSOMAL COMPOSITIONS AND USES THEREOF” (THE BOARD OF TRUSTEES OF THE UNIVERSITY OF ILLINOIS, priority 2008, published 2015)
# Some entries share one result that the patent states for a list of compounds.
# Assay: Dynamic light scattering (NICOMP) particle size of PxB, PxB with DSPE-PEG2000 and SSM in saline
# Assay type: physicochemical
# Conditions: 25° C.
# Method: In order to determine the optimum peptide to lipid ratio of PxB to SSM, fluorescence spectroscopy and NICOMP analysis were carried out on PxB at varying concentrations in sterile normal saline (SNS) and with DSPE-PEG2000 at a fixed concentration. In these experiments, PxB Sulphate (MW […], Research Products International Corp, Cat: P40160-1.0, Lot#003746), DSPE-PEG2000 (MW 2811 g/mol, Lipoid, Cat#PE18:0/18:0/PEG 2000, Lot#899346-1/10), Methanol, and HEPES Buffer (pH˜7.4) were used. Controls: SSM (1 mM) and Samples: PxB-SSM (1:1000) were prepared.
# Specifically, PxB (at various concentrations ranging from 0.5 mM to 6.9 mM) in sterile normal saline (SNS) was incubated with DSPE-PEG2000 (1 mM). Stock solutions of PxB and DSPE-PEG2000 were prepared and equilibrated for 2 hours. After the 2 hour equilibration, stock solutions were characterized by dynamic light scattering (DLS) using the NICOMP 380 Submicron Particle Sizer (Particle Sizing Systems, Inc. Santa Barbara, Calif.). […] A SSM sample (1 mM) (n=1) was prepared in saline alone for comparison with the PxB-SSM samples. Concurrent samples of PxB (0.5, 1.0, 2.3 and 6.9 mM) were prepared in saline alone or with SSM (DSPE-PEG2000, 1 mM) (n=8). The samples were measured for 30 minutes using DLS at approximately 2, 24, and 48 hours after time 0.
substance,measurement,value
polymyxin B [PxB],remained stable for,at least 48 h
